Reference: patent publication US6916624 (Genentech, dated 2005)
No constants are given. Whether binding was seen depends on the method and setting. Some results given as binding are weak or reduced against the parent protein; the word gives no strength. Sequences can lack the tags named with a protein.

Sequences of proteins named here, by UniProt entry; tags and fusion partners are left off. A change or cut given only in a name is not applied to a line headed by its entry.
UniProt Q15303: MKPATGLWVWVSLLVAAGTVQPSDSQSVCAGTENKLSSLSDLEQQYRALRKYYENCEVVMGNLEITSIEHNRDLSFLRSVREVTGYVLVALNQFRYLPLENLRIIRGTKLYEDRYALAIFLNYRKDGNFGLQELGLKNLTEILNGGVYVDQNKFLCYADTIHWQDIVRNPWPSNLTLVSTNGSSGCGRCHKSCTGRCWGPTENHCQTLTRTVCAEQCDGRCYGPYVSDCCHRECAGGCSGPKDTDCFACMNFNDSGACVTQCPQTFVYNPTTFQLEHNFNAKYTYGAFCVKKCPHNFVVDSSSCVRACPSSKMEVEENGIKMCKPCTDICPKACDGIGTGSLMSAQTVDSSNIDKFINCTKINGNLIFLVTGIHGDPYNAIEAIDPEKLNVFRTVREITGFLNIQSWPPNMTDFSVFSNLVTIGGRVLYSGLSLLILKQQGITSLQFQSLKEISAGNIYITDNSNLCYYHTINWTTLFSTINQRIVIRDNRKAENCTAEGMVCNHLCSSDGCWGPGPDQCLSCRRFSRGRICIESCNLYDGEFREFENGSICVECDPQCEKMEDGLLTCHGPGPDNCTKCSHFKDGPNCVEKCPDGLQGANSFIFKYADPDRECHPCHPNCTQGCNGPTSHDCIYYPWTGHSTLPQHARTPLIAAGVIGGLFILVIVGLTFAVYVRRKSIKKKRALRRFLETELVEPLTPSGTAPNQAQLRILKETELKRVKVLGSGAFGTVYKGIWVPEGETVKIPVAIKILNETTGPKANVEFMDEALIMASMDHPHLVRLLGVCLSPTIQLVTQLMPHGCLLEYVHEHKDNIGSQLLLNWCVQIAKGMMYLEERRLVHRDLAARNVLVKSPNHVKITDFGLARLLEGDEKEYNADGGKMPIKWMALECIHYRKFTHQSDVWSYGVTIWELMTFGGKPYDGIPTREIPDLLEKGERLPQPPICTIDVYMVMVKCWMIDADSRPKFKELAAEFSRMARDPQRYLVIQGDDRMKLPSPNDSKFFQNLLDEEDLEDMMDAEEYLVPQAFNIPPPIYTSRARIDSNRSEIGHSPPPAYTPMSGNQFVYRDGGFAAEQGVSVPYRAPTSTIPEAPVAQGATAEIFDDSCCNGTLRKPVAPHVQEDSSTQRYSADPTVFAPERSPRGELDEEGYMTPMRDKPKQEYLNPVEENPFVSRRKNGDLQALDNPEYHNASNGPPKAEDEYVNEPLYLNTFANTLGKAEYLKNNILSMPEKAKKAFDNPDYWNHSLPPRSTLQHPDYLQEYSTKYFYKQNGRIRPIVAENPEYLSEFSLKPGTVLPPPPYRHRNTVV

What was measured:
[1] = biological target: ErbB3-immunoadhesin (ErbB3-IgG fusion, L636 ErbB3-(TR)-DKTH224 VH) (human) (UniProt P21860+P01857); test: competitive displacement of ^125I-HRGβ1(177-244) from immobilised ErbB3-IgG
[2] = biological target: ErbB4-immunoadhesin (ErbB4-IgG fusion, G640 ErbB4-(TR)-DKTH224 VH) (human) (UniProt Q15303+P01857); test: competitive displacement of ^125I-HRGβ1(177-244) from immobilised ErbB4-IgG

binding [1]: binds
binding [2]: binds
B1: trxγ-HRG (amino acids 455-768), N-terminal truncated γ-HRG thioredoxin fusion protein (ligand)
chain: QVFIDHPVHLKFNVSLGKAALVGIYGRKGLPPSHTQFDFVELLDGRRLLTQEARSLEGTPRQSRGTVPPSSHETGFIQYLDSGIWHLAFYNDGKESEVVSFLTTAIALPPRLKEMKSQESAAGSKLVLRCETSSEYSSLRFKWFKNGNELNRKNKPQNIKIQKKPGKSELRINKASLADSGEYMCKVISKLGNDSASANITIVESNEIITGMPASTEGAYVSSESPIRISVSTEGANTSSSTSTSTTGTSHLVKCAEKEKTFCVNGGECFMVKDLSNPSRYLCKCPNEFTGDRCQNYVMASFYSTSTPFLSLPE
notes: The results text calls it simply γ-HRG; also called recombinant γ-HRG; bacterial expressed truncated γ-HRG; not shown: N-terminal thioredoxin encoded by the pET-32a TRX fusion vector (Novagen); vector-encoded residues of pET32a between thioredoxin and the BamHI insertion site are not described
